This experiment deals with endogenous WWP2 (human (endogenous in HEK293T)) (UniProt O00308). Kind of experiment: co-IP; HA-ARRDC3 expressed in HEK293T; IP of endogenous WWP2 with anti-WWP2 or IgG, blot for HA; 1% NP-40 lysis buffer, overnight at 4 °C.

By UniProt entry, the sequences of proteins in these tests, tags left out.
UniProt O00308: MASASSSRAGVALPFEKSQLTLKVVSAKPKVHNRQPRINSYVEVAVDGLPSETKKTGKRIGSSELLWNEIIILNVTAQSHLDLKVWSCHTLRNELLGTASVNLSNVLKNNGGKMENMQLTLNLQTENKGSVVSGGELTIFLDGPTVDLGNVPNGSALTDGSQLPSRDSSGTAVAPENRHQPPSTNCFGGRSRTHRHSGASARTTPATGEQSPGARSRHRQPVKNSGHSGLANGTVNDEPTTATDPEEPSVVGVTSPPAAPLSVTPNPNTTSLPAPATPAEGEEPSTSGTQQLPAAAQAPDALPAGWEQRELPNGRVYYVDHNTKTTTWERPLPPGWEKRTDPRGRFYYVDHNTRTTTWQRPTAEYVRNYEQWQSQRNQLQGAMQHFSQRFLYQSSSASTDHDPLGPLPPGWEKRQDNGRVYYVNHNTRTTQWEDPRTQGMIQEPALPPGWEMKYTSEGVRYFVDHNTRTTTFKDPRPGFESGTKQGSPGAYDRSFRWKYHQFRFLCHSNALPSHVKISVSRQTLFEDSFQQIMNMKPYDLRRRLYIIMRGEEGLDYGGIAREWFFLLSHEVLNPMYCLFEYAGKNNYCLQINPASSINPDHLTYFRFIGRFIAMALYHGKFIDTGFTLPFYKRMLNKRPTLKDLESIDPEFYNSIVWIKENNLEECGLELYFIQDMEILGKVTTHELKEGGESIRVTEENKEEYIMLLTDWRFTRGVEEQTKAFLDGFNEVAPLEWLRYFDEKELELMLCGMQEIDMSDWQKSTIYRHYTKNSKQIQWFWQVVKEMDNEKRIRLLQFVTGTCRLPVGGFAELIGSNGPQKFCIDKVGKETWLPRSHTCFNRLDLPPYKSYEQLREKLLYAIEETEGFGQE

1 molecule from PMC12213294 can be followed below.

No constants are given. Whether binding was seen depends on the method and setting. In cells and extracts the contact can be indirect. Some binding calls cover weakened binding; strength is not graded here. Where a sequence is shown, tags or fusion partners need not be part of it.

B1: HA-ARRDC3 wild-type (protein, UniProt Q96B67 1-414)
chain: MVLGKVKSLTISFDCLNDSNVPVYSSGDTVSGRVNLEVTGEIRVKSLKIHARGHAKVRWTESRNAGSNTAYTQNYTEEVEYFNHKDILIGHERDDDNSEEGFHTIHSGRHEYAFSFELPQTPLATSFEGRHGSVRYWVKAELHRPWLLPVKLKKEFTVFEHIDINTPSLLSPQAGTKEKTLCCWFCTSGPISLSAKIERKGYTPGESIQIFAEIENCSSRMVVPKAAIYQTQAFYAKGKMKEVKQLVANLRGESLSSGKTETWNGKLLKIPPVSPSILDCSIIRVEYSLMVYVDIPGAMDLFLNLPLVIGTIPLHPFGSRTSSVSSQCSMNMNWLSLSLPERPEAPPSYAEVVTEEQRRNNLAPVSACDDFERALQGPLFAYIQEFRFLPPPLYSEIDPNPDQSADDRPSCPSR
B1: the binding entry is “binds”.
